Results as given in patent publication US20140038883A1, “NOVEL AZACOUMARIN DERIVATIVES HAVING MDR PUMP INHIBITING ACTIVITY” (UNIVERSITE CLAUDE BERNARD LYON 1, priority 2011, published 2014).
Some results were stated once for a whole list of compounds, not compound by compound.

System: S. aureus ATCC 29213
Test: Antibiotic activity of the compounds alone (MIC technique)
Assay type: cell-based, Staphylococcus aureus
Conditions: compound alone, 18-24 h at 37° C., MH II medium
Protocol: All the compounds according to the invention are solubilized in dimethylsufoxide (DMSO). For each compound, the highest concentration usable during the experiments is determined by taking into account the toxicity of the solvent (final concentration of DMSO in contact with the bacteria of less than 3%) and also the capacity of the compound to solubilize in Mueller Hinton II (MH II) media. This is because some compounds precipitate during dilutions of solutions based on DMSO in MH II media. The strain for screening the compounds is a strain of Staphylococcus aureus from the American Type Culture Collection or ATCC, called S. aureus ATCC 29213. The antibiotic activity of a molecule is evaluated using the MIC technique. The MIC of a molecule is determined in a 96-well microplate, in MH II liquid medium according to the protocol of the CASFM and of the CLSI. A dilution range of the molecule is prepared beforehand in MH II medium. In each well, 100 μl of a bacterial suspension of SI aureus ATCC 29213 (10^6 CFU/ml), 50 μl of the dilution range of the compound tested and 50 μl of MH II are mixed. After 18-24 h of incubation at 37° C., the molecules having shown an inhibition of bacterial growth are recorded as having an antibiotic activity. The lowest concentration of compound for which no bacterial growth is observed is the MIC (lowest concentration inhibiting the growth of the bacteria).

Row | Structure (SMILES) | antibiotic activity alone, concentration (MIC)
1 | COc1cc(O)c2c(C)c(-c3cccs3)c(=O)[nH]c2c1 [compound I.7, 5-hydroxy-7-methoxy-4-methyl-3-(thiophen-2-yl)quinolin-2(1H)-one] | 62.5 to 125 µM
2 | COc1cc(O)c2c(C)c(-c3ccccc3)c(=O)[nH]c2c1 [compound I.12, 5-hydroxy-7-methoxy-4-methyl-3-phenylquinolin-2(1H)-one] | 62.5 to 125 µM
